Source: PubChem BioAssay AID743121 (NCATS, 2013)

Assay: 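Knock-downs that sensitise breast cancer cells to camptothecin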 (primary screen)
Cells: MDA-MB-231 cells, a human breast cancer line
Reagent: single siRNA against human genes, 20 nM siRNA (0.8 pmol per well)
Duration: 120 h (drug added 48 h after transfection, read 72 h later)
Challenge: camptothecin 20 nM (about EC30) for 72 h; vehicle 0.1% DMSO in parallel plates
Measured: 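Cell viability by ATP luminescence (CellTiter-Glo) as % of non-targeting siRNA wells, and the log2 ratio of viability without drug over viability with camptothecin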
Scale: log2 vehicle/camptothecin viability: higher = stronger sensitisation to camptothecin; viability with camptothecin: higher = more viable cells
Rule for the call: 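Active genes have an RSA gene-level p-value below 0.001, computed from the ratios of their separate siRNAs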
The whole screen tested about 26,000 reagents; this is an unselected part. Over the whole deposit, 167 (0.63%) got an active call. 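Calls are per gene from RSA p-values that are not deposited; an individual active-marked siRNA can sensitise only weakly.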 Reagents against one gene are numbered here. Further read-outs or replicates are left out here. Reagent sequences are not shown.

HSPG2 #1 | log2 vehicle/camptothecin viability: -0.421; viability with camptothecin (% of control): 49; call: inactive
HSPG2 #2 | log2 vehicle/camptothecin viability: 0.115; viability with camptothecin (% of control): 63.6; call: inactive
HSPG2 #3 | log2 vehicle/camptothecin viability: -0.261; viability with camptothecin (% of control): 68.4; call: inactive
HSPG2 #4 | log2 vehicle/camptothecin viability: -0.169; viability with camptothecin (% of control): 76.7; call: inactive
EIF2AK4 #1 | log2 vehicle/camptothecin viability: -0.0653; viability with camptothecin (% of control): 108; call: inactive
EIF2AK4 #2 | log2 vehicle/camptothecin viability: -0.181; viability with camptothecin (% of control): 104; call: inactive
EIF2AK4 #3 | log2 vehicle/camptothecin viability: 0.496; viability with camptothecin (% of control): 54.6; call: inactive
EIF2AK4 #4 | log2 vehicle/camptothecin viability: 0.115; viability with camptothecin (% of control): 75.5; call: inactive
MAST1 #1 | log2 vehicle/camptothecin viability: -0.504; viability with camptothecin (% of control): 97; call: inactive
MAST1 #2 | log2 vehicle/camptothecin viability: 0.038; viability with camptothecin (% of control): 73.7; call: inactive
MAST1 #3 | log2 vehicle/camptothecin viability: -0.339; viability with camptothecin (% of control): 96.7; call: inactive
MAST1 #4 | log2 vehicle/camptothecin viability: -0.0143; viability with camptothecin (% of control): 109; call: inactive

Targets listed so far whose target name begins with E or e:
EIF2AK4 #1 | log2 vehicle/camptothecin viability: -0.0653; viability with camptothecin (% of control): 108; call: inactive
EIF2AK4 #2 | log2 vehicle/camptothecin viability: -0.181; viability with camptothecin (% of control): 104; call: inactive
EIF2AK4 #3 | log2 vehicle/camptothecin viability: 0.496; viability with camptothecin (% of control): 54.6; call: inactive
EIF2AK4 #4 | log2 vehicle/camptothecin viability: 0.115; viability with camptothecin (% of control): 75.5; call: inactive

The listing continues.
OTOF #1 | log2 vehicle/camptothecin viability: -0.512; viability with camptothecin (% of control): 53.1; call: inactive
OTOF #2 | log2 vehicle/camptothecin viability: -0.235; viability with camptothecin (% of control): 104; call: inactive
OTOF #3 | log2 vehicle/camptothecin viability: -0.148; viability with camptothecin (% of control): 62; call: inactive
OTOF #4 | log2 vehicle/camptothecin viability: -0.579; viability with camptothecin (% of control): 123; call: inactive
GEMIN2 #1 | log2 vehicle/camptothecin viability: 0.0785; viability with camptothecin (% of control): 82.9; call: inactive
GEMIN2 #2 | log2 vehicle/camptothecin viability: -0.54; viability with camptothecin (% of control): 81; call: inactive
GEMIN2 #3 | log2 vehicle/camptothecin viability: -0.128; viability with camptothecin (% of control): 84.6; call: inactive
GEMIN2 #4 | log2 vehicle/camptothecin viability: 0.28; viability with camptothecin (% of control): 68; call: inactive
RAD51 #1 | log2 vehicle/camptothecin viability: -0.375; viability with camptothecin (% of control): 54.4; call: inactive
RAD51 #2 | log2 vehicle/camptothecin viability: 0.82; viability with camptothecin (% of control): 26.1; call: inactive
RAD51 #3 | log2 vehicle/camptothecin viability: 0.164; viability with camptothecin (% of control): 26.3; call: inactive
RAD51 #4 | log2 vehicle/camptothecin viability: 0.11; viability with camptothecin (% of control): 47.4; call: inactive
